This passage reports step yield results from patent US4459225 (dated 1984).

Square brackets hold non-standard residues; d marks the D form. * marks the point of attachment. Boc = CC(C)(C)OC(=O)*; tBu = CC(C)(C)*; For = O=C*

A short description of the series: general procedure: solution-phase peptide synthesis; dicyclohexylcarbodiimide/1-hydroxybenzotriazole; active esters (N-hydroxysuccini). The conditions noted are these: trifluoroacetate.

Turning to “tert.Butyloxycarbonyl-O-tert.butyl-tyrosyl-D-N^ε -formyllysyl-glycyl-dehydrophenylalanyl-prolinamide”, the step yield (coupling step) amounted to 43%.
Still for that read-out and setting: to “D-N^ε -formyllysyl-glycyl-dehydrophenylalanine-prolinamide-hydrobromide” belongs 70%.
The same measure, in the same setting: to “BOC-Tyr-D-Lys(For)-Gly-NH-CH(CH2 OH)-CHOH-C6 H5” belongs 96%; to Boc-Y(tBu)[dK](For)GF-OH, 71%.
In turn, “L-Tyrosyl-D-N^ε -formyllysyl-glycyl-dehydrophenylalanyl-L-prolinamide-trifluoroacetate” registered a step yield (late stage modification step) of 92%.
On the same count and under the same terms, to “D-N^ε-formyllysyl-glycyl-dehydrophenylalanine-prolinamide-hydrobromide” belongs 96%.
Turning to “L-Tyrosyl-D-N^ε -formyllysyl-glycyl-L-phenylalanyl-homocysteine-thiolactone-trifluoroacetate”, the step yield (late stage modification step) is recorded as 85%.
